# Source: patent US20110294952A1, “Optimized Drug Conjugates” (SynDevRX, priority 2010, published 2011)
# For at least one compound, name, drawing or mass did not settle the structure.
# Assay: In vivo pharmacokinetics of polymer conjugate
# Parameters: species or system Sprague-Dawley rats
# Settings: SDX-7539 single bolus IV 30 mg/kg, rat plasma
# Protocol: FIG. 6 is a graph showing the plasma concentration of the active metabolite, SDX-7539, as a function of time in Sprague-Dawley rats, to which either the polymer conjugate SDX-7320 (single bolus, intravenous injection, 200 mg/kg) or the small molecule SDX-7539 (single bolus, intravenous injection, 30 mg/kg) has been administered.
# The polymer conjugate, SDX-7320, or the in vivo release product, SDX-7539 were administered to Sprague-Dawley rats (N=3). Blood was collected over 48 hours after dosing to determine the plasma concentration of SDX-7539 by LC-MS/MS. The LLOQ for SDX-7539 was 2.5 nM. The terminal elimination half-life for SDX-7539 was estimated by fitting a linear regression to the ln [SDX-7539] versus time data. […] Cmax for the polymer is about 2% of the value for the small molecule.
compound,measurement,value
CO[C@@H]1[C@H](OC(=O)NC2CCC(N)CC2)CC[C@]2(CO2)[C@H]1[C@@]1(C)O[C@@H]1CC=C(C)C (stereo partly shown) [SDX-7539],time at which Cmax occurs,T0
